Test [1] addresses Human CD3 expressed on Jurkat NFAT reporter T cells (human) (UniProt P07766). The test can be described thus: flow cytometry on Jurkat NFAT cells, PE anti-human Fc secondary antibody. In general terms: A flow cytometer gives signals particle by particle.
Test [2] shares this target. The test can be described thus: flow cytometry on CD3-expressing cells (cell type not named there), IgG format.
For test [3], the target named is 組み換えTYRP1(Sino Biologicals) (bought recombinant human TYRP1) (human) (UniProt P17643). The test can be described thus: SPR, relative active concentration after 14 days at 37 or 40 degrees C, recombinant TYRP1 (Sino Biologicals) as antigen. For orientation: SPR reads the build-up and loss of mass on a sensor chip optically.

Amino acid sequences for entries named in this document (tags omitted). A change or cut given only in a name is not applied to a line headed by its entry.
UniProt P07766: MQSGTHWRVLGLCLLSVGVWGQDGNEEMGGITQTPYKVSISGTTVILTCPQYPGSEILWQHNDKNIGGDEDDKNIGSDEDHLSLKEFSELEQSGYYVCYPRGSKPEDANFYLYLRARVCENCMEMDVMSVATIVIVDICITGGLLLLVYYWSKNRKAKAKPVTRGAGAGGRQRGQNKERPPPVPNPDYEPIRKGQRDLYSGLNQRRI
UniProt P17643: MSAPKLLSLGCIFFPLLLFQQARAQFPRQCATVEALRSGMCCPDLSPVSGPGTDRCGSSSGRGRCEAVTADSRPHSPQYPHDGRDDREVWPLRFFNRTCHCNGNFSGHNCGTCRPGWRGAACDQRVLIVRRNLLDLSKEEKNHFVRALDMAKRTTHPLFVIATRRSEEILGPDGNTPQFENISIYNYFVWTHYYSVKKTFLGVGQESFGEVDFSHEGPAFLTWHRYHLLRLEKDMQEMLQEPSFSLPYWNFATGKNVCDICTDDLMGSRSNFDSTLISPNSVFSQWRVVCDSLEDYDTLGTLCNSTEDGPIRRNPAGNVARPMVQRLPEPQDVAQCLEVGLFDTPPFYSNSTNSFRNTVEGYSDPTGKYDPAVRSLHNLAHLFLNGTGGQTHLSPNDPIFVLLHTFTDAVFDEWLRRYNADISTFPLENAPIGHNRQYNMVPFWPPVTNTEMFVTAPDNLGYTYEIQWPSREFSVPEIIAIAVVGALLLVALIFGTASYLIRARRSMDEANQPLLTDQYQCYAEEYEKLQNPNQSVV

Results are given in words; binding and its absence hold for the method and conditions named. Some results given as binding are weak or reduced against the parent protein; the word gives no strength.

B1: CD3 opt ヒトIgG1 PGLALA (optimized CD3 binder, human IgG1 with P329G L234A L235A) (antibody, V domains shown)
VH: EVQLLESGGGLVQPGGSLRLSCAASGFQFSSYAMNWVRQAPGKGLEWVSRIRSKYNNYATYYADSVKGRFTISRDDSKNTLYLQMNSLRAEDTAVYYCVRHTTFPSSYVSYYGYWGQGTLVTVSS
VL: QAVVTQEPSLTVSPGGTVTLTCGSSTGAVTTSNYANWVQEKPGQAFRGLIGGTNKRAPGTPARFSGSLLGGKAALTLSGAQPEDEAEYYCALWYSNLWVFGGGTKLTVLR
As to B1, the binding result in test [1] and in test [2] was “binds” throughout.

B2: TYRP1 IgG (the TYRP1 binder of the TCB in IgG format) (antibody, V domains shown)
VH: QVQLVQSGAEVKKPGASVKVSCKASGFNIKDYFLHWVRQAPGQGLEWMGWINPDNGNTVYAQKFQGRVTMTADTSTSTVYMELSSLRSEDTAVYYCTRRDYTYEKAALDYWGQGTLVTVSS
VL: DIQMTQSPSSLSASVGDRVTITCRASGNIYNYLAWYQQKPGKVPKLLIYDAKTLADGVPSRFSGSGSGTDFTLTISSLQPEDVATYYCQHFWSLPFTFGQGTKLEIK
B2: in test [3], the binding result was “binds”.

The record behind these values is JP2022028645A.
